Reference: article PMC9200754
Results are given in words; binding and its absence hold for the method and conditions named. Binding seen in cells or lysates may run through a third protein. Some entries that bind do so weakly or less than the wild type.

Protein sequences, listed by entry. Tags and fused reporters are not part of them. Lines headed by an entry give the natural chain unless they say otherwise; changes in a name come on top. Residues count along the entry.
UniProt P19838: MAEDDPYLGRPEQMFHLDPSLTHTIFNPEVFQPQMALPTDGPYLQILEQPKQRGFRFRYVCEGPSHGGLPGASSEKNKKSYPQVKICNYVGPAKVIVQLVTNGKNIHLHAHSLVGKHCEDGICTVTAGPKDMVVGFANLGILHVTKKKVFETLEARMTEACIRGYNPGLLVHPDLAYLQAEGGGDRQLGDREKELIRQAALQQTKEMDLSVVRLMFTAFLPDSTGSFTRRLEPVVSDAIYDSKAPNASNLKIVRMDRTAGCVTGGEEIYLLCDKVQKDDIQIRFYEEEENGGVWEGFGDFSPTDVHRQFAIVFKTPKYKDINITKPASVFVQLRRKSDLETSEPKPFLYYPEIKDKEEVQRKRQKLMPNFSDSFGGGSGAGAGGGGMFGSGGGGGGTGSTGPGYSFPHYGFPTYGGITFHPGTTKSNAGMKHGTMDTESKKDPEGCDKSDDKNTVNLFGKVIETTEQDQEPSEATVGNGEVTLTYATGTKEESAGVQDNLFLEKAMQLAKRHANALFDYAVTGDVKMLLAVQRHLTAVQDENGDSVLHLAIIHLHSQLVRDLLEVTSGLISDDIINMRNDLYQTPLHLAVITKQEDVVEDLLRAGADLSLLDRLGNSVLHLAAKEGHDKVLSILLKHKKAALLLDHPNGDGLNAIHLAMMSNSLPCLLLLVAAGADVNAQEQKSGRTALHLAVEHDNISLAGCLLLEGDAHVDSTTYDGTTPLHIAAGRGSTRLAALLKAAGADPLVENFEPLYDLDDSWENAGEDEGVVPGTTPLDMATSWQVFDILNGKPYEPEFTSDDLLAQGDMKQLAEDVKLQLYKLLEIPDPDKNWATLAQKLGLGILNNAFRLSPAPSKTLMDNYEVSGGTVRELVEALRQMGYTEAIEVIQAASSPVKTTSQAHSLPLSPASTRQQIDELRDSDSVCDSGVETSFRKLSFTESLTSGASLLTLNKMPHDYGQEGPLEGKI
Nluc-p50: residues 1-433 of P19838
UniProt Q96RR4: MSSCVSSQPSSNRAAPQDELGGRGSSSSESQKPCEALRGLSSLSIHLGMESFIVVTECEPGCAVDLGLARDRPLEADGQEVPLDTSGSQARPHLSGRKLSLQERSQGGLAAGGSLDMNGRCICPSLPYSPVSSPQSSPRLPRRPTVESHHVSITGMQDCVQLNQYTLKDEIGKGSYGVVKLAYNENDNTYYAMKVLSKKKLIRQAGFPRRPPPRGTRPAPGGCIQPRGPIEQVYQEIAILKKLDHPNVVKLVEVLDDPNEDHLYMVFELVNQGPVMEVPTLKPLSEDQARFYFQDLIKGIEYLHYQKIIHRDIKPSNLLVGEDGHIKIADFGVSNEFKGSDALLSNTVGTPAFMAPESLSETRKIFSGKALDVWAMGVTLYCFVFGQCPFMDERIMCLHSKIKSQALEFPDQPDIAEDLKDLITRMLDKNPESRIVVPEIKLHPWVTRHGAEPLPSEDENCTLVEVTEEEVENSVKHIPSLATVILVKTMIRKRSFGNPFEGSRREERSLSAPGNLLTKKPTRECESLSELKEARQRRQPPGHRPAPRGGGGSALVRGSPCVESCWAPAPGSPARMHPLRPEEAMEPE
UniProt P42224: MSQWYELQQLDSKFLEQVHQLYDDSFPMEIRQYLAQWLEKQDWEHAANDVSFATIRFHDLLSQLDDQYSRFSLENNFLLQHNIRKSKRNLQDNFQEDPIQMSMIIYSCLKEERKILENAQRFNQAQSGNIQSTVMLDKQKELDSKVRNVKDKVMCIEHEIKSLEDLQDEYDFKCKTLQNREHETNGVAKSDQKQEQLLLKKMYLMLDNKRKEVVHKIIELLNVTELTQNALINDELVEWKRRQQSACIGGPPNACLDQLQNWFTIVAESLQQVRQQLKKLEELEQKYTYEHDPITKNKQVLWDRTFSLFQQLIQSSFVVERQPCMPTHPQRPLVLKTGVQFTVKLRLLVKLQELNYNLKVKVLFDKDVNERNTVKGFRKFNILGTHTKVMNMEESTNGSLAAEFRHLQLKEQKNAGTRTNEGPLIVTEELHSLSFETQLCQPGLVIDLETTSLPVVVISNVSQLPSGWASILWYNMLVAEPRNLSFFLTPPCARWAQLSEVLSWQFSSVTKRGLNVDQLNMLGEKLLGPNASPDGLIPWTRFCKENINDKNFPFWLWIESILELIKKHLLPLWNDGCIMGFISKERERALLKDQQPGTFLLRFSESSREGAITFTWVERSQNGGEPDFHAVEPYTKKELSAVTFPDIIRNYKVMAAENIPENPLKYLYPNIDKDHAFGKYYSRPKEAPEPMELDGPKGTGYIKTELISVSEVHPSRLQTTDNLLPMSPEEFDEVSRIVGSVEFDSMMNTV
UniProt Q04206: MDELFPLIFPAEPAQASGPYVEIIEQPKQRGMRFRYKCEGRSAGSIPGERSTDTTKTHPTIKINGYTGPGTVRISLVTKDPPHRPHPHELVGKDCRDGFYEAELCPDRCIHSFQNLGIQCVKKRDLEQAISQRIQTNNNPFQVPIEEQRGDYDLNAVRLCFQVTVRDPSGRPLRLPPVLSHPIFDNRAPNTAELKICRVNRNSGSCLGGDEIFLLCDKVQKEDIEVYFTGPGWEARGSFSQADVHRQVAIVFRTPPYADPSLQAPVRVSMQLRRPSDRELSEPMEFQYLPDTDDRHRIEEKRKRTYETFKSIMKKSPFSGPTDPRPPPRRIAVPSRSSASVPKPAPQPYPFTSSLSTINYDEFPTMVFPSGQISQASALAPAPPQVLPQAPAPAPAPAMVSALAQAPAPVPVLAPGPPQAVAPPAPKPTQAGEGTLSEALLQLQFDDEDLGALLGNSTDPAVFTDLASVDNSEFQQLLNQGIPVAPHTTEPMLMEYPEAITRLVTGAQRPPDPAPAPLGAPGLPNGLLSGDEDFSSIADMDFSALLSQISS
UniProt P06241: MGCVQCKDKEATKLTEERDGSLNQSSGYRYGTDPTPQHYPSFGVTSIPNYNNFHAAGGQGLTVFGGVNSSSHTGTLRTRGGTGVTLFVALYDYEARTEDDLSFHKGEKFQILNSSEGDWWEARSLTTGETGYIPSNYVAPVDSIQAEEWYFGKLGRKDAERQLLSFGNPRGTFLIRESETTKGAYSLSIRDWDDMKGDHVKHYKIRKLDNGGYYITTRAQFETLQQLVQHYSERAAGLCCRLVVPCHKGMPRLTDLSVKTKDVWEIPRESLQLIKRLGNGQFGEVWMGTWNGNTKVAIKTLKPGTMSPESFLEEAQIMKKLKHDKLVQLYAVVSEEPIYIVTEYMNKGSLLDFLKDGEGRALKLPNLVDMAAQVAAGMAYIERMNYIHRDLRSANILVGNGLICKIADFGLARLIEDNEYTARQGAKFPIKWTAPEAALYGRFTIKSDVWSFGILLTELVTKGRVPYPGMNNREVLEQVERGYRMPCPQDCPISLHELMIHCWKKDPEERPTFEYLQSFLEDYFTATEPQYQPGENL
UniProt P52630: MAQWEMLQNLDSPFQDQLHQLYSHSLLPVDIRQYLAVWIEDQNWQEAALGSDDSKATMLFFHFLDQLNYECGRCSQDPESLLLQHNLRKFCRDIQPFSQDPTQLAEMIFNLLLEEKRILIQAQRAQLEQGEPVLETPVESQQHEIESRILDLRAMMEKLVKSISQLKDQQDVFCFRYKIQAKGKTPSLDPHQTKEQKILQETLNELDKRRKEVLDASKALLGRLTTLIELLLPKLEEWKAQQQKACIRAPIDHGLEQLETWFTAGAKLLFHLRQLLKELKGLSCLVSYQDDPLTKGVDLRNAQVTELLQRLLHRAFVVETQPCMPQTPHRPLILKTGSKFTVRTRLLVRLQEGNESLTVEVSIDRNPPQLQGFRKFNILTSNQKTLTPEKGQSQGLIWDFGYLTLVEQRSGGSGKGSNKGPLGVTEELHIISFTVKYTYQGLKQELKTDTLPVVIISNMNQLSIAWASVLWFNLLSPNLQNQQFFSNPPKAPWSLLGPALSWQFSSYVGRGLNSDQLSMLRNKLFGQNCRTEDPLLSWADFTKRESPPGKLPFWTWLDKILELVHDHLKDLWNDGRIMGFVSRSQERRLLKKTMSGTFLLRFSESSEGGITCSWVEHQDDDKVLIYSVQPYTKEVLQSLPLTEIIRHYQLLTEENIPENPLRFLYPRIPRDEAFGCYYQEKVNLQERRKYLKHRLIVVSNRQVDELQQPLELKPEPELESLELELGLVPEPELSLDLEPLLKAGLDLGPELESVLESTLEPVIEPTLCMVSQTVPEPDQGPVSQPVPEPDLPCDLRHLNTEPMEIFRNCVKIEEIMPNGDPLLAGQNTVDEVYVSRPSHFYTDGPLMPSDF

biological target: Nluc-p50 (human) (UniProt P19838); test: FRET or BRET

| Substance | binding |
| --- | --- |
| YFP-CAMKK2 (from UniProt Q96RR4 1-588) | no binding |
| YFP-STAT1 (from UniProt P42224 1-750) | no binding |
| YFP-p65 (from UniProt Q04206 1-551) | binds |

The next lines start with the values.

| binding | Substance |
| --- | --- |
| no binding | YFP-FYN (from UniProt P06241 1-537) |
| no binding | YFP-STAT2 (from UniProt P52630 1-851) |
| binds | YFP-p105 (from UniProt P19838 1-968) |
